Laboratory results published in patent US20190161525A1 (NATIONAL CHENG KUNG UNIVERSITY, published 2019).
These are yes or no findings as the source states them, for the method shown. Some entries that bind do so weakly or less than the wild type. Where a sequence is shown, tags or fusion partners need not be part of it.

Amino acid sequences for entries named in this document (tags omitted). A change or cut given only in a name is not applied to a line headed by its entry. Chains listed by the source or under a name are the forms on record and can include a tag or linker. Residues count along the entry.
UniProt P05067, residues 672-713: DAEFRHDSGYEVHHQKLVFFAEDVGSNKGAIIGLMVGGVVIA
PHF-tau (paired helical filament tau) in human postmortem AD hippocampus (P10636, form named): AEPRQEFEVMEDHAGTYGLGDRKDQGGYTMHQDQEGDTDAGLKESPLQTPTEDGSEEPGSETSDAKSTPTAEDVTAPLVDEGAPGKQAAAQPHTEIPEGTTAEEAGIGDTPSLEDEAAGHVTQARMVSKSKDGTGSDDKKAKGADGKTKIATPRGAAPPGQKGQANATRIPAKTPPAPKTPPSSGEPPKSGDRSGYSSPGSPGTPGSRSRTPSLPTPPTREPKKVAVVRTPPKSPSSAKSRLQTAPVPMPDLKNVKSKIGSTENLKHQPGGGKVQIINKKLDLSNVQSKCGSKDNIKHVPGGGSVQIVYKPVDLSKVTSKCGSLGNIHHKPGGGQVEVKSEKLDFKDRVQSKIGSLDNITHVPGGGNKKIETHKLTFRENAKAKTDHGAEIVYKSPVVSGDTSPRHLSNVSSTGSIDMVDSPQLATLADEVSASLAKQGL

Key:
[1] = target: Aβ (amyloid β) in human postmortem AD hippocampus (human) (UniProt P05067); test: FRET analysis, immunofluorescence on AD hippocampal sections
[2] = target: PHF-tau (paired helical filament tau) in human postmortem AD hippocampus (human) (UniProt P10636); test: as above
[3] = target: Aβ (amyloid β) in human postmortem AD hippocampus (human) (UniProt P05067); test: nonreducing SDS-PAGE of postmortem human soluble hippocampal extracts
[4] = target: PHF-tau (paired helical filament tau) in human postmortem AD hippocampus (human) (UniProt P10636); test: antibody FRET microscopy on hippocampal sections of postmortem AD patients

Measured: binding

B1: Zfra1-31 (full-length zinc finger-like protein that regulates apoptosis, synthetic peptide) (peptide)
peptide: MSSRRSSSCKYCEQDFRAHTQKNAATPFLAN
notes: also called Zfra peptide; full-length Zfra
binds: all assays above
